In patent publication US5026694A, “Platinum complexes with one radiosensitizing ligand” (priority 1989, dated 1991):
For at least one compound, name, drawing or mass did not settle the structure.

System: L1210 cells, cDDP resistant line
Test: Toxicity in cisDDP-resistant L1210 cells (cross-resistance)
Type: cell-based
Details: read-out: ID50 (the source's name)
From the text: Patients become resistant to cisplatin (cisDDP) and to many related drugs.

SMILES: Cc1n(CCO)c([N+](=O)[O-])c[n+]1[Pt-2]([NH3+])([Cl])[Cl] [cis mono METRO]
- IC50: 23.1 mM
